Experimental data from publication PMC6726657.
No constants are given. Whether binding was seen depends on the method and setting. Binding seen in cells or lysates may run through a third protein. Some binding calls cover weakened binding; strength is not graded here.

By UniProt entry, the sequences of proteins in these tests, tags left out. Where a name states a change or a piece, a line headed by the entry shows the natural chain unless it says otherwise.
UniProt P60766: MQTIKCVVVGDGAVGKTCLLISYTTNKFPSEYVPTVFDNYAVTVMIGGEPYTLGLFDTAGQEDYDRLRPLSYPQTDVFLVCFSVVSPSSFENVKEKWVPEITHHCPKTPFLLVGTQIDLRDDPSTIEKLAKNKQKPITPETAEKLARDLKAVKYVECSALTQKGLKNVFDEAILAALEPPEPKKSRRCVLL
UniProt Q9QUI0: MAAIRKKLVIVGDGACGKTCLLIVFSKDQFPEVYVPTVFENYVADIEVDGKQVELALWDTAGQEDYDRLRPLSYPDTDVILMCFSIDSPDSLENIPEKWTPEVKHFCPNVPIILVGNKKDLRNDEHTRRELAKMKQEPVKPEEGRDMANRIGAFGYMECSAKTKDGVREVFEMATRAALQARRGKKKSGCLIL
UniProt Q9JKF1: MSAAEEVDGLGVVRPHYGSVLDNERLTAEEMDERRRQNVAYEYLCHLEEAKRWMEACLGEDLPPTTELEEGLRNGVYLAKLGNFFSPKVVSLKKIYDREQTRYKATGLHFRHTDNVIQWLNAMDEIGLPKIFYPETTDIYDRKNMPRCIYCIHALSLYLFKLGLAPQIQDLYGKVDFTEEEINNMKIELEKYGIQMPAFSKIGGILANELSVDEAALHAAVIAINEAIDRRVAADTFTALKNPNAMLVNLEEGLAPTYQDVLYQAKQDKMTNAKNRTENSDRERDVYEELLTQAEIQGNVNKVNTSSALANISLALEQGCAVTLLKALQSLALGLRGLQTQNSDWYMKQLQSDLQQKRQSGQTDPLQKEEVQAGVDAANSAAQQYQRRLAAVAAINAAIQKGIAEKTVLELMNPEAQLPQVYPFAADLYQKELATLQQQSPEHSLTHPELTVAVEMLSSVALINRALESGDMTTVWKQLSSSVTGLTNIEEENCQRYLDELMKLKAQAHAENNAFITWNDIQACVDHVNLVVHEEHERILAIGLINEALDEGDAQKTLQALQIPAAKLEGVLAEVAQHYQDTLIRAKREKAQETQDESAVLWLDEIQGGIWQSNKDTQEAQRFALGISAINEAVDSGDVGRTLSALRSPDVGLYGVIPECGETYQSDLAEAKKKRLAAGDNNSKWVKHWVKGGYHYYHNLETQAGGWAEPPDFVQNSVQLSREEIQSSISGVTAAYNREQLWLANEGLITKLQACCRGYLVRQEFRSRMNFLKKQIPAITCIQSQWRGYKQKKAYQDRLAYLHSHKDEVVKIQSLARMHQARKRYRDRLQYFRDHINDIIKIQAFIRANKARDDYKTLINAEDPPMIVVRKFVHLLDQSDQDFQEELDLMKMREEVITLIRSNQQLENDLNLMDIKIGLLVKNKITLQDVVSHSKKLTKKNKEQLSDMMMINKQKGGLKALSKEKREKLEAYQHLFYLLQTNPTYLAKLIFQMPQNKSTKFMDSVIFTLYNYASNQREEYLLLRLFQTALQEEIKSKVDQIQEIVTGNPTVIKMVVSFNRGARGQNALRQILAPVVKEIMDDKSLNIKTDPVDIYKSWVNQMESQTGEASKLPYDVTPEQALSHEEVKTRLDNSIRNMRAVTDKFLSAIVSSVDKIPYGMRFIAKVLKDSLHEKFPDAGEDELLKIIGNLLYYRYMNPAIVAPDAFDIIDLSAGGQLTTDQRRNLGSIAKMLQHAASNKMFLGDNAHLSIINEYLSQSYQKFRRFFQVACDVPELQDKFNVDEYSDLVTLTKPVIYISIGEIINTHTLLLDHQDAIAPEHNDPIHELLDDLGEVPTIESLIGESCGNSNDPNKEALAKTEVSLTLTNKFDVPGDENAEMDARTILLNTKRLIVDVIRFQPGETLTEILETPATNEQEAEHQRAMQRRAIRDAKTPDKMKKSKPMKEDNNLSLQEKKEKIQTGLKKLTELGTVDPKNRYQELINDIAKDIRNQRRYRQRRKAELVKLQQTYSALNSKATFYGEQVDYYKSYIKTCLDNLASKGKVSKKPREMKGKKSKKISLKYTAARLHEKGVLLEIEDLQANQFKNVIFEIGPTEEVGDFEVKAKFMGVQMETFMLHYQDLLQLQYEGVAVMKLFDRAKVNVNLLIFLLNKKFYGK
UniProt Q60610: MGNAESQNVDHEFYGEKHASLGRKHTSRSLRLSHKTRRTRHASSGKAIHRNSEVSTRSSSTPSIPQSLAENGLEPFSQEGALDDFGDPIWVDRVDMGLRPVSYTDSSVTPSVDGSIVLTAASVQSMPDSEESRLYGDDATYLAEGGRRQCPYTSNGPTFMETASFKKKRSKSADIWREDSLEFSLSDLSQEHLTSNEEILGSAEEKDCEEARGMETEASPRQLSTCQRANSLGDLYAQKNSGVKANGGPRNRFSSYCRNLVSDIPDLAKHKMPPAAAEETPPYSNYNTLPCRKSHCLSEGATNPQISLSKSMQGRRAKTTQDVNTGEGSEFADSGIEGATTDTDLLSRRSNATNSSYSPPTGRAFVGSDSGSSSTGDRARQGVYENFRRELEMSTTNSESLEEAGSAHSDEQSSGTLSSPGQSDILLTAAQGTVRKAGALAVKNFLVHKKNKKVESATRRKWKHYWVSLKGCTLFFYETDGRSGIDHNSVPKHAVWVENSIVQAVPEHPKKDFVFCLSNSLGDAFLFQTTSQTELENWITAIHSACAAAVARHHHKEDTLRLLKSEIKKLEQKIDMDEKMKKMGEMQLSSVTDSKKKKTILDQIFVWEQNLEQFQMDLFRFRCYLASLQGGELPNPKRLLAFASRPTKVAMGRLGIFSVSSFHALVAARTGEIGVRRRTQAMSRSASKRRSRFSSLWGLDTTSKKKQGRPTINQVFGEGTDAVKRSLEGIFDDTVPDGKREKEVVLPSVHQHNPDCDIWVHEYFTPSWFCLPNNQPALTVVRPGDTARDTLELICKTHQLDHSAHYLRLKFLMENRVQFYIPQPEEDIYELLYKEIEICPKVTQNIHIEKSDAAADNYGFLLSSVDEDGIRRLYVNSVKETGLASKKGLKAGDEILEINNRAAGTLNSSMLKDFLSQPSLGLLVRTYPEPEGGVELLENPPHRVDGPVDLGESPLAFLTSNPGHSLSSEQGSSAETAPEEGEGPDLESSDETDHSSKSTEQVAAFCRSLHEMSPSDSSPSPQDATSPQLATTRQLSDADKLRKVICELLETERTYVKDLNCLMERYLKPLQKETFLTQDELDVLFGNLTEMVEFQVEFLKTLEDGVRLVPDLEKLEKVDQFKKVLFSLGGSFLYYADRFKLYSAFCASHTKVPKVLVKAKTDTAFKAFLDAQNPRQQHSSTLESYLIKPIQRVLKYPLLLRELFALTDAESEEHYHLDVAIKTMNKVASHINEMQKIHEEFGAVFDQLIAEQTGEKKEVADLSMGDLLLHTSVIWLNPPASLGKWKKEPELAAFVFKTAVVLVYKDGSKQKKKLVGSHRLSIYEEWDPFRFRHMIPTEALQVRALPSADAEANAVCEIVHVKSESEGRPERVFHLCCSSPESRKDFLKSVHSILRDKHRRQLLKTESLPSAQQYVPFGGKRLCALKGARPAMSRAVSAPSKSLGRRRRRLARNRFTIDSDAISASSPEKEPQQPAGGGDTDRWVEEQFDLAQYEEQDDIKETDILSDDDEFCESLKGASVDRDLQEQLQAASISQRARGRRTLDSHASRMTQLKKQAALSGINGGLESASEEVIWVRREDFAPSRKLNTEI

Columns and labels:
Experiment in all cases: co-IP; lysates of bone marrow macrophages of Pggt1b^Δ/Δ and control mice; 25 mM Tris-HCl pH 7.4, 150 mM NaCl, 1 mM EDTA, 1% NP-40, 5% glycerol; IP with antibodies to Rac1, Cdc42, RhoA, Iqgap1 or Tiam1 on Dynabeads Protein G, western blot, densitometry
[1] = target: nonprenylated Cdc42 (in Pggt1b^Δ/Δ macrophages) (mouse (endogenous in bone marrow macrophages)) (UniProt P60766)
[2] = target: nonprenylated RhoA (in Pggt1b^Δ/Δ macrophages) (mouse (endogenous in bone marrow macrophages)) (UniProt Q9QUI0)
[3] = target: Ras GTPase-activating-like protein Iqgap1 (mouse (endogenous in bone marrow macrophages)) (UniProt Q9JKF1)

Ras GTPase-activating-like protein Iqgap1 (from UniProt Q9JKF1 1-1657)
binding [1]: binds
binding [2]: binds

Tiam1 (from UniProt Q60610 1-1591)
binding [3]: binds
